# Laboratory results taken from PubChem BioAssay (NCATS).
# The shares of active, inactive and inconclusive entries below differ from those in the screen. Potencies beside an inconclusive call are fits to weak or partial responses and may not hold up. Active and inactive are the calls of the source. The call rests on the fitted dose curve; in most records, active means well fitted cell-killing curve with a large enough effect; inconclusive means small, poorly fitted or top-dose-only effect, or effect the other way; inactive means no such curve, though single readings can be large or run the other way.
# Assay: Quantitative High-Throughput drug screen in 47 multiple myeloma cell lines against the NCATS MIPE library collection: ARD_JJKsccE7 cell viability assay (AID 1918929)
# Conditions: ARD myeloma cell line viability, CellTiter-Glo, 48 h; viability: at 45.8 µM (top of the series)
# In short: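 CellTiter-Glo ATP luminescence gave viability after 48 h compound treatment at 37C of 500 multiple myeloma cells per well. Normalisation used DMSO-only wells as 100% and media-only wells as 0% viability; primary qHTS of approved and investigational drugs.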
# Potency means the concentration at half of the fitted maximal effect.
row,Structure (SMILES),Potency
1,CON=C(C(=O)N[C@@H]1C(=O)N2C(C(=O)O)=C(CSC(=O)c3ccco3)CS[C@H]12)c1csc(N)n1,"inconclusive: 0.0015 µM [cytotoxic, full curve, poor fit]"
2,O=C(c1ccc(F)cc1)C1CCN(CCn2c(=O)[nH]c3ccccc3c2=O)CC1,"inconclusive: 0.0021 µM [cytotoxic, full curve, poor fit]"
3,Clc1ccc(C2(c3ccc(-c4cn[nH]c4)cc3)CCNCC2)cc1,"inconclusive: 8.33 µM [cytotoxic, full curve]"
4,CSc1cccc(Nc2ncc3cc(-c4c(Cl)cccc4Cl)c(=O)n(C)c3n2)c1,"inconclusive: 0.0296 µM [cytotoxic, full curve, poor fit]"
5,COc1nc(C)cnc1NS(=O)(=O)c1cccnc1-c1ccc(-c2nnco2)cc1,"inconclusive: 37.2 µM [rising, single point]"
6,Cc1nnc(C(=O)NC(C)(C)c2nc(C(=O)NCc3ccc(F)cc3)c(O)c(=O)n2C)o1,"inconclusive: 0.0833 µM [cytotoxic, full curve, poor fit]"
7,OC[C@H](Cc1ccccc1)Nc1nc(Oc2ccc3c(c2)CCC3)nc2c1ncn2Cc1ccc(-c2ccccc2)cc1,"inconclusive: 11.8 µM [cytotoxic, full curve]"
8,Nc1nc(N)nc(-c2cc(Cl)ccc2Cl)n1,"inconclusive: 0.0132 µM [cytotoxic, full curve, poor fit]"
9,CC(C)(S)[C@@H](N)C(=O)O,inactive
10,CNC(=O)c1ccc(N2C(=S)N(c3ccc(C#N)c(C(F)(F)F)c3)C(=O)C2(C)C)cc1F,inconclusive: 0.001 µM [cytotoxic]
11,COc1ccc2nc(S(=O)Cc3ncc(C)c(OC)c3C)[nH]c2c1 (stereo unspecified),"inconclusive: 20.9 µM [cytotoxic, partial curve]"
12,COC(=O)[C@H](CCCN=C(N)N)NS(=O)(=O)c1ccc(C)cc1,inactive
13,Cn1c(CNc2ccc(C(=N)N)cc2)nc2cc(C(=O)N(CCC(=O)O)c3ccccn3)ccc21,inactive
14,O=C(O)c1ccc(O)c2ncc(N3CCOCC3)cc12,"inconclusive: 29.6 µM [cytotoxic, single point]"
15,CCCCCCCCCCCCCCCC(=O)O[C@H]1[C@@H](O)[C@@H](O)[C@@H]([C@H](NC(=O)[C@@H]2C[C@@H](CCC)CN2C)[C@H](C)Cl)O[C@@H]1SC,"inconclusive: 0.0053 µM [rising, full curve, poor fit]"
16,Nc1ccc(S(=O)(=O)Nc2ccccn2)cc1,inactive
17,CCOc1cc2ncc(C#N)c(Nc3ccc(F)c(Cl)c3)c2cc1NC(=O)C=CCN(C)C,"inconclusive: 0.332 µM [cytotoxic, full curve, poor fit]"
18,O=S(=O)(O)CCS,inconclusive: 0.001 µM [cytotoxic]
19,CC[C@H]1OC(=O)[C@H](C)[C@@H](O[C@H]2C[C@@](C)(OC)[C@@H](O)[C@H](C)O2)[C@H](C)[C@@H](O[C@@H]2O[C@@H](C)C[C@H](N(C)C)[C@@H]2O)[C@](C)(O)C[C@@H](C)C(=O)[C@H](C)[C@@H](O)[C@]1(C)O,inactive
20,COc1ccc(CCN2CCN(CCCc3ccccc3)CC2)cc1OC,active: 13.2 µM
21,O=[N+]([O-])c1cn2c(n1)OC[C@@H](OCc1ccc(OC(F)(F)F)cc1)C2,inactive
22,NC(=NCc1ccccc1)NC(=O)c1nc(Cl)c(N)nc1N,"inconclusive: 37.2 µM [cytotoxic, partial curve, poor fit]"

# Structural class, the compounds so far containing a carbonyl joined to an NH by a bond outside any ring (six)
row,Structure (SMILES),Potency
1,CON=C(C(=O)N[C@@H]1C(=O)N2C(C(=O)O)=C(CSC(=O)c3ccco3)CS[C@H]12)c1csc(N)n1,"inconclusive: 0.0015 µM [cytotoxic, full curve, poor fit]"
6,Cc1nnc(C(=O)NC(C)(C)c2nc(C(=O)NCc3ccc(F)cc3)c(O)c(=O)n2C)o1,"inconclusive: 0.0833 µM [cytotoxic, full curve, poor fit]"
10,CNC(=O)c1ccc(N2C(=S)N(c3ccc(C#N)c(C(F)(F)F)c3)C(=O)C2(C)C)cc1F,inconclusive: 0.001 µM [cytotoxic]
15,CCCCCCCCCCCCCCCC(=O)O[C@H]1[C@@H](O)[C@@H](O)[C@@H]([C@H](NC(=O)[C@@H]2C[C@@H](CCC)CN2C)[C@H](C)Cl)O[C@@H]1SC,"inconclusive: 0.0053 µM [rising, full curve, poor fit]"
17,CCOc1cc2ncc(C#N)c(Nc3ccc(F)c(Cl)c3)c2cc1NC(=O)C=CCN(C)C,"inconclusive: 0.332 µM [cytotoxic, full curve, poor fit]"
22,NC(=NCc1ccccc1)NC(=O)c1nc(Cl)c(N)nc1N,"inconclusive: 37.2 µM [cytotoxic, partial curve, poor fit]"

# Assay: Quantitative High-Throughput drug screen in 47 multiple myeloma cell lines against the NCATS MIPE library collection: Karpas620_DSMZ cell viability assay (AID 1918959); further: nearly all actives have a fitted effect of over 30% in size
# Conditions: Karpas620 myeloma viability, CellTiter-Glo ATP luminescence, 48 h; viability (% of DMSO): at 45.8 µM (top of the series)
# In short: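 qHTS of the MIPE 4.0 collection: 500 myeloma cells/well, 48 h drug exposure at 37C in 5% CO2, then CellTiter-Glo for 5 min at room temperature before luminescence reading.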
Structure (SMILES),Potency,viability (% of DMSO)
CSc1cccc(Nc2ncc3cc(-c4c(Cl)cccc4Cl)c(=O)n(C)c3n2)c1,"inconclusive: 0.118 µM [cytotoxic, full curve, poor fit]",–
COc1ccc(-c2ccc3cc(C(=O)O)ccc3c2)cc1C12CC3CC(CC(C3)C1)C2,inactive,–
COc1nc(C)cnc1NS(=O)(=O)c1cccnc1-c1ccc(-c2nnco2)cc1,"inconclusive: 37.2 µM [rising, single point]",–
Cc1nnc(C(=O)NC(C)(C)c2nc(C(=O)NCc3ccc(F)cc3)c(O)c(=O)n2C)o1,inactive,–
Nc1nc(N)nc(-c2cc(Cl)ccc2Cl)n1,"inconclusive: 0.0015 µM [cytotoxic, full curve, poor fit]",–
CC(C)(S)[C@@H](N)C(=O)O,inactive,–
COc1ccc(CC2c3cc(OC)c(OC)cc3CC[N+]2(C)CCC(=O)OCCCCCOC(=O)CC[N+]2(C)CCc3cc(OC)c(OC)cc3C2Cc2ccc(OC)c(OC)c2)cc1OC (stereo unspecified),–,inactive: 107% [at 5.15 µM]
COc1ccc2nc(S(=O)Cc3ncc(C)c(OC)c3C)[nH]c2c1 (stereo unspecified),"inconclusive: 33.2 µM [cytotoxic, single point]",–
O=C(O)c1ccc(O)c2ncc(N3CCOCC3)cc12,active: 18.7 µM,–
CCCCCCCCCCCCCCCC(=O)O[C@H]1[C@@H](O)[C@@H](O)[C@@H]([C@H](NC(=O)[C@@H]2C[C@@H](CCC)CN2C)[C@H](C)Cl)O[C@@H]1SC,"inconclusive: 5.26 µM [cytotoxic, full curve, poor fit]",–
CCOc1cc2ncc(C#N)c(Nc3ccc(F)c(Cl)c3)c2cc1NC(=O)C=CCN(C)C,"inconclusive: 0.209 µM [cytotoxic, full curve, poor fit]",–
O=C(NCCCCN1CCOCC1)c1cc2ccccc2o1,inactive,–
COc1ccc(CCN2CCN(CCCc3ccccc3)CC2)cc1OC,"inconclusive: 23.5 µM [cytotoxic, single point]",–
NC(=NCc1ccccc1)NC(=O)c1nc(Cl)c(N)nc1N,"inconclusive: 37.2 µM [cytotoxic, single point]",–
